Experiment [1] deals with T1, FLAG-tagged IDH2 (UniProt P48735).
T1 sequence: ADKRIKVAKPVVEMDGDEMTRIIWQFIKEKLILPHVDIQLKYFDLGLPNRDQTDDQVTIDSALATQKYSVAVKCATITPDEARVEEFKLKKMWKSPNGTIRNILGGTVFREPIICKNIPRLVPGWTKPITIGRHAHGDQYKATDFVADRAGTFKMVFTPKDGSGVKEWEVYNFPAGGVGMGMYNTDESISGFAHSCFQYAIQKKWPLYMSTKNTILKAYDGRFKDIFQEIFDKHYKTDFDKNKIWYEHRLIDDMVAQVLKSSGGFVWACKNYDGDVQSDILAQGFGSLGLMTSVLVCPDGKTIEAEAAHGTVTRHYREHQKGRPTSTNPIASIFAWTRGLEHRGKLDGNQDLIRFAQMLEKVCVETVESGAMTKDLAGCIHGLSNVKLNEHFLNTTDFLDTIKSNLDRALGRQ
The experiment can be described thus: co-IP; RBE cells cotransfected with FLAG-tagged IDH(s) and HA-K18^WT or HA-K18^S30A; enrichment with anti-FLAG beads, HA-K18 levels by Western blot.

A further experiment concerns the target T2, FLAG-tagged IDH3A (UniProt P50213).
T2 sequence: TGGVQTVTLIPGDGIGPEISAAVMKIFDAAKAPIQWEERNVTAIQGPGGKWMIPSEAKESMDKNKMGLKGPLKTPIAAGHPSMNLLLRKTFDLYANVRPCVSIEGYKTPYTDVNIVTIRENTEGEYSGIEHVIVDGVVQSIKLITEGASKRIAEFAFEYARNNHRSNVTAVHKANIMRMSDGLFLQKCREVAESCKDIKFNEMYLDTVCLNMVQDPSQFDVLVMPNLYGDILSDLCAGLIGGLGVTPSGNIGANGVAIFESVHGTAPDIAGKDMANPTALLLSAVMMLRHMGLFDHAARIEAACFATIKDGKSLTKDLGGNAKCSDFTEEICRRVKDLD
Described as above.

Another experiment deals with T3, FLAG-tagged IDH3G (UniProt P51553).
T3 sequence: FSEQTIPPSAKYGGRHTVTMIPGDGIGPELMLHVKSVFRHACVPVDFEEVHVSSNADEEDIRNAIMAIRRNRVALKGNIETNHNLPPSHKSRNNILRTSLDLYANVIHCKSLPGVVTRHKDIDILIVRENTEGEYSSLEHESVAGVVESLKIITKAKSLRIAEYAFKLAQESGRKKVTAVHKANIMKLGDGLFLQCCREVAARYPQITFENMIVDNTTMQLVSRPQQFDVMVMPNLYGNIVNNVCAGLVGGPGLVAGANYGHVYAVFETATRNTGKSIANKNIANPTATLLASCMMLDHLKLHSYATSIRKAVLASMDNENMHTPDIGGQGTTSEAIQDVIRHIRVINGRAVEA
Described as above.

The target in experiment [2] is T1, FLAG-tagged IDH2. The experiment can be described thus: co-IP; RBE cells cotransfected with FLAG-IDH2 wild type or S202A and K18^WT and/or K18^S30A; Western blot and immunoprecipitation analyses (Figure S37); beads not stated.
Experiment [3] concerns the target T4, FLAG-tagged IDH2 Ser202 mutation (FLAG-IDH2^S202A) (UniProt P48735).
T4 sequence: T1 sequence with S163A
The experiment is described as above.

For experiment [4], the target named is FLAG-tagged Keratin 18 S30A (FLAG-K18^S30A) (human). The experiment can be described thus: co-IP; RBE-rescued cells (Figure S32); as the experiment in HuCCT1 cells.
For experiment [5] the target is unchanged. Nature of the experiment: co-IP; HuCCT1 stable cell lines shK18 + WT and shK18 + S30A; immunoprecipitation of FLAG-K18, Western blot for endogenous TCA cycle enzymes.

This passage reports binding results from PMC11117311.

Where a chain is given by its changes, count along the chain named. These are yes or no findings as the source states them, for the method shown. Binding seen in cells or lysates may run through a third protein. Binding calls can cover weak binding; strength is not graded here. For some assays here: Tags and fused reporters may be left off the sequences shown.

“HA-tagged K18 S30A mutant (HA-K18^S30A) (human)”: the binding result (in the experiment with FLAG-tagged IDH2 [1]; in the experiment with FLAG-tagged IDH3A; in the experiment with FLAG-tagged IDH3G; with FLAG-tagged IDH2 [2]; in experiment [3]) was “binds” each time.

B1: isocitrate dehydrogenase IDH3G (endogenous) (enzyme, UniProt P51553 40-393)
chain: T3 sequence
As to B1, the binding result in experiment [4] and in experiment [5] was “binds” in each case.

B2: isocitrate dehydrogenase IDH2 (endogenous) (enzyme, UniProt P48735 40-452)
chain: T1 sequence
B2: the binding entry in experiment [4] and in experiment [5] was “binds” each time.

B3: isocitrate dehydrogenase IDH3A (endogenous) (enzyme, UniProt P50213 28-366)
chain: T2 sequence
For B3, the binding result in experiment [4] and in experiment [5] was “binds” throughout.
